Assay results as given in patent US12171233B1, “Ethyl {[N′-(3-chlorophenyl)-N-(2,4-dichlorobenzoyl) carbamimidoyl]sulfanyl}acetate as an eco-friendly insecticidal agent against Spodoptera littoralis (Boisd.)” (priority 2023, dated 2024).

Tested on: Spodoptera littoralis larvae (2nd and 4th instar)
Experiment: Insecticidal bioassay screening (castor leaf dip)
Format: in vivo
Conditions: regression (LDP) line, 72 h
Experimental: In this experiment, castor leaves are immersed in each of the previously prepared concentrations of the components for 10 seconds and then left to dry for 60 minutes. Larvae of the second and fourth instars of each checked strain are prepared with treated leaves in gauze-covered glass containers for 72 hrs. An untreated control is made in which leaves are dipped in triton x-100 and distilled water only. Then the preserved leaves were removed & fresh, untreated leaves were provided for 72 hours. Three replicates (10 larvae each) were checked for each concentration. Daily inspection was carried out for all treatments and mortality percentages were recorded 3 days (72 hours) after treatment. The average mortality percentage was corrected employing Abbott's formula. The corrected mortality rate for each of the previously synthesized compounds is statistically calculated according to Finney (1970). Through this rate, the corresponding concentration test lines (LDP lines) are assessed. Fifty and ninety percent mortality are determined, and the regression values for the checked products were previously evaluated.

| SMILES | Slope (2nd instar larvae) | Slope (4th instar larvae) |
| --- | --- | --- |
| O=C(NC(=O)c1c(F)cccc1F)Nc1ccc(Cl)cc1 [Diflubenzuron, reference compound] | 1.20 ± 0.46 | 1.2 ± 0.36 |
| O=C(NC(=S)Nc1cccc(Cl)c1)c1ccc(Cl)cc1Cl [Compound 1, 2,4-dichloro-N-[(3-chlorophenyl)carbamothioyl]benzamide] | 1.02 ± 0.35 | 0.95 ± 0.36 |
